Measured values: the supplement of paper PMC12067093, “Discovery and optimisation of a covalent ligand for TRIM25 and its application to targeted protein ubiquitination” (Chemical Science, 2025)
This is one part of the list.

Amino acid sequences for entries named in this document (tags omitted). A change or cut given only in a name is not applied to a line headed by its entry.
UniProt Q4J6C6, whole entry, looked up: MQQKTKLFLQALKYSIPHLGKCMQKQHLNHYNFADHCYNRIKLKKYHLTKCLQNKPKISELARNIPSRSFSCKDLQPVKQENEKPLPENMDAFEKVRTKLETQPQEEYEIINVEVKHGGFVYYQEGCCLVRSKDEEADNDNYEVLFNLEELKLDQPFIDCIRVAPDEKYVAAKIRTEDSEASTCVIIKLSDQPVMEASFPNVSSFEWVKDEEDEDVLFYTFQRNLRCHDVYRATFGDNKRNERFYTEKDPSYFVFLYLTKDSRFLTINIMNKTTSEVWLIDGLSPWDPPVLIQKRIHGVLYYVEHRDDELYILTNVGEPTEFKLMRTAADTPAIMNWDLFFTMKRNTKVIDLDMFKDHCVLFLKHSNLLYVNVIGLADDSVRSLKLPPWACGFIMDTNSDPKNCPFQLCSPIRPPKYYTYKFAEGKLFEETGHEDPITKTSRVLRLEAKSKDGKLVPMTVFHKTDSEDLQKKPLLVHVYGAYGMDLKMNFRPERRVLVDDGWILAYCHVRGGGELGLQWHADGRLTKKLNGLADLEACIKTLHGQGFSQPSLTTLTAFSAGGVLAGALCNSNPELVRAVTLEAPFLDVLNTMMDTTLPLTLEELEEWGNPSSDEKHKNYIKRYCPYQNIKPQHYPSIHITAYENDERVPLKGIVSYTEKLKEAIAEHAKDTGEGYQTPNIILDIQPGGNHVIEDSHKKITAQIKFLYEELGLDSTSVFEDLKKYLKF
UniProt P50897: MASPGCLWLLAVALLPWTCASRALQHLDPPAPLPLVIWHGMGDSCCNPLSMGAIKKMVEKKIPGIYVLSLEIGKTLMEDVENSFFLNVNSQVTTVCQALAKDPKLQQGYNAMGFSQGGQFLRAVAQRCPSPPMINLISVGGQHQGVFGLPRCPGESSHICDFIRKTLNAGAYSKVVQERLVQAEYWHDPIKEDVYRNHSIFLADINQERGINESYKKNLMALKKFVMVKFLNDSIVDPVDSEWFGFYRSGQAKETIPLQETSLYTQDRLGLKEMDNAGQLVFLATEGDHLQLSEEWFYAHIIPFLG
UniProt Q13362, whole entry, looked up: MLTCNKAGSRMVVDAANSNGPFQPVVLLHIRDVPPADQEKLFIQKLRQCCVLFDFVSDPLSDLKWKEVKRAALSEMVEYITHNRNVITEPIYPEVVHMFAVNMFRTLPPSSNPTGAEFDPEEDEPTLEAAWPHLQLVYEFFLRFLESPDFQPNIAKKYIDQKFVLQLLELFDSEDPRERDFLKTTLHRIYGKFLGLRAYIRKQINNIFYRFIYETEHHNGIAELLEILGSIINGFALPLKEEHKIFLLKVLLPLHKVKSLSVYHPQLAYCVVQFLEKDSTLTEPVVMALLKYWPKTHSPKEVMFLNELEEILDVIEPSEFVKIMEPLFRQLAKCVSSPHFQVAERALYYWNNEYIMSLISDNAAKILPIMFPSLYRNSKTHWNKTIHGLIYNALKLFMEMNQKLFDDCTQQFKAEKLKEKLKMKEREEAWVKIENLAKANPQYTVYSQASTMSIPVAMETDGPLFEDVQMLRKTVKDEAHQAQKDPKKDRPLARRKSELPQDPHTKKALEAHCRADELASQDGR
UniProt Q15435: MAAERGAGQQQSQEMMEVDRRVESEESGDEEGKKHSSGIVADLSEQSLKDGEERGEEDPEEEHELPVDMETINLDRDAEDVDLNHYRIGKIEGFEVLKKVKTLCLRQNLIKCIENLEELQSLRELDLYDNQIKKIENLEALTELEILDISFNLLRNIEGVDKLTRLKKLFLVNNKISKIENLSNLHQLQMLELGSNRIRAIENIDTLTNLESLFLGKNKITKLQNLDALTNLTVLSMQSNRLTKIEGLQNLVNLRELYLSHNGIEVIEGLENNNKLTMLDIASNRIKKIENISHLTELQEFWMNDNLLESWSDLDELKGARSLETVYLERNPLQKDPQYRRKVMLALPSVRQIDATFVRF
UniProt P60510: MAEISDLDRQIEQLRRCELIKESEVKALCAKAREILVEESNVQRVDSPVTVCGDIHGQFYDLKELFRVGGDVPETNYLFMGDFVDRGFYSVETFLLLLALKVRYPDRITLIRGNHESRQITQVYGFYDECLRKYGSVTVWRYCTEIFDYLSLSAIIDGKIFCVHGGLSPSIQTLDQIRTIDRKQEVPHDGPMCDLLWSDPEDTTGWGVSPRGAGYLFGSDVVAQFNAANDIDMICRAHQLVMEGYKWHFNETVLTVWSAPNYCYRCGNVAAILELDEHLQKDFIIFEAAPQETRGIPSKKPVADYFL
UniProt P32119: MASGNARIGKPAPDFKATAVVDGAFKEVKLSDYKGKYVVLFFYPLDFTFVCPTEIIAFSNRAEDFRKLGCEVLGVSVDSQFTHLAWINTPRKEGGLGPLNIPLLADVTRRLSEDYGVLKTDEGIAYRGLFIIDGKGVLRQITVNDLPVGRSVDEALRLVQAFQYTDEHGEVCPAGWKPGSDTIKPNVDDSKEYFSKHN
UniProt Q9Y570: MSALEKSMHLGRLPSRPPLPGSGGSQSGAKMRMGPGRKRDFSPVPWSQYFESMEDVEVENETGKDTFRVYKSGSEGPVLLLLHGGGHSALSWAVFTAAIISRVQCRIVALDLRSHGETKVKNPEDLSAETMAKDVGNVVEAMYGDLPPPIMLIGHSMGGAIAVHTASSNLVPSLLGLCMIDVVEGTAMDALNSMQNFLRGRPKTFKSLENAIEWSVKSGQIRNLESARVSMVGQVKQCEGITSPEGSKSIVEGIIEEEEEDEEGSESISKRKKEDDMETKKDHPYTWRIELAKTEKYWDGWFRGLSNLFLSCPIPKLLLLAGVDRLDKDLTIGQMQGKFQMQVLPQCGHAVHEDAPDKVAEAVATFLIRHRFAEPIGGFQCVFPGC
UniProt O75170: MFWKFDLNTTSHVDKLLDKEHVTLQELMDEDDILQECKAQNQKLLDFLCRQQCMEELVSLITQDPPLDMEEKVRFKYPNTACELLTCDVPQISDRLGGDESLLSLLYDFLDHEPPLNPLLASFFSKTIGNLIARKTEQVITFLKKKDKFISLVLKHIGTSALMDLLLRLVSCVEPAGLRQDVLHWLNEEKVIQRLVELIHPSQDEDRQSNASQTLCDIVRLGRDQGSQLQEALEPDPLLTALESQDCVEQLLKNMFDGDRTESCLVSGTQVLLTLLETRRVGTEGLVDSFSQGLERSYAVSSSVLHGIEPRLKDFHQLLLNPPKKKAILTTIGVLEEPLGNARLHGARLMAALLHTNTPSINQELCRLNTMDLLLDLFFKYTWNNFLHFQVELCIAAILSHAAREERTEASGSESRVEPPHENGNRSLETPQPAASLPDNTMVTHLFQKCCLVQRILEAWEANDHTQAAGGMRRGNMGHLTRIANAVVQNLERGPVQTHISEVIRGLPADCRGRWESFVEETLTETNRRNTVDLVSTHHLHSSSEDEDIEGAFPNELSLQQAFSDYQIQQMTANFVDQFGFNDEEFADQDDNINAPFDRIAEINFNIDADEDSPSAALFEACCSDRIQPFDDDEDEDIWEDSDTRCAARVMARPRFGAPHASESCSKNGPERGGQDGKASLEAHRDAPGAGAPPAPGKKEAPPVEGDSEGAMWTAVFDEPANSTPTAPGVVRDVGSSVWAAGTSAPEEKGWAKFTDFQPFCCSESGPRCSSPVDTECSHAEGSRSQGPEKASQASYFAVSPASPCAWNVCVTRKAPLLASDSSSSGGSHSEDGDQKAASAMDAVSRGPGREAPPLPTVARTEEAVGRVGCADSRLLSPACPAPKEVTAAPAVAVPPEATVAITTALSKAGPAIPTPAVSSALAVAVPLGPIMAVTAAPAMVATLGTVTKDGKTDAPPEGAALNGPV
UniProt O43447: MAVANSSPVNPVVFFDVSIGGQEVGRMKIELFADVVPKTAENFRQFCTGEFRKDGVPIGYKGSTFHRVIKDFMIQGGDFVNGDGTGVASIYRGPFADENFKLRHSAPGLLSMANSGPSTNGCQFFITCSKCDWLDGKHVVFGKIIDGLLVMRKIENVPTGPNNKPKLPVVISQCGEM
UniProt Q6NYC8: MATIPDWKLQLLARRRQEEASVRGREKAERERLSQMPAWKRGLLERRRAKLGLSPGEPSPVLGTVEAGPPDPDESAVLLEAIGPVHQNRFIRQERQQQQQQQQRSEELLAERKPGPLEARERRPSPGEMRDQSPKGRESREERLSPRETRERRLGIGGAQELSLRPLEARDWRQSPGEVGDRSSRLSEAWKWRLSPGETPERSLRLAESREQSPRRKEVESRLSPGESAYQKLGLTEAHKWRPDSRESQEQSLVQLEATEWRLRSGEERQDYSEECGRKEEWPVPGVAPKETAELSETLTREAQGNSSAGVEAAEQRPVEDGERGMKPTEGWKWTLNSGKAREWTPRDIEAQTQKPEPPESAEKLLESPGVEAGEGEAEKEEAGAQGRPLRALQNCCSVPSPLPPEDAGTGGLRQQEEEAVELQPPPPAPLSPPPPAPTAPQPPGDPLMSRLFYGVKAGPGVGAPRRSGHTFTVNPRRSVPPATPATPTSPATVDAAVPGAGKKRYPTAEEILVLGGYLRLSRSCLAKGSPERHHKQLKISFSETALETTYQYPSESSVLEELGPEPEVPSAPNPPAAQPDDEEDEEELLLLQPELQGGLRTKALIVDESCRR
UniProt P30153, whole entry, looked up: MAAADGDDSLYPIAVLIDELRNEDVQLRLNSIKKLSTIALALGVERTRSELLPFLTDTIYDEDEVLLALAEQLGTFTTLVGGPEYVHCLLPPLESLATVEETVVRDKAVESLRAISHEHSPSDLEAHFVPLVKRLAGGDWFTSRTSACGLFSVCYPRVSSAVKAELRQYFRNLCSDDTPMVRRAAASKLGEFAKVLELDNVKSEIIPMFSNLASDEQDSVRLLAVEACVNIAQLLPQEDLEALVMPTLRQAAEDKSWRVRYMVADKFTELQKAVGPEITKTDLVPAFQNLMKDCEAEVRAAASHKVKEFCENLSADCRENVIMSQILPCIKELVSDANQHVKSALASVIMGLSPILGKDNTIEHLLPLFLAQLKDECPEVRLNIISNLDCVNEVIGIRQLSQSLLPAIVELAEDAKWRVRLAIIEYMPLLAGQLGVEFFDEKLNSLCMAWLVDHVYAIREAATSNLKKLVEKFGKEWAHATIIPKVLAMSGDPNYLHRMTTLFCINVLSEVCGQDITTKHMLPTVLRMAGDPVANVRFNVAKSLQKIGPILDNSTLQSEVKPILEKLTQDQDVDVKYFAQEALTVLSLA
UniProt Q86YV5: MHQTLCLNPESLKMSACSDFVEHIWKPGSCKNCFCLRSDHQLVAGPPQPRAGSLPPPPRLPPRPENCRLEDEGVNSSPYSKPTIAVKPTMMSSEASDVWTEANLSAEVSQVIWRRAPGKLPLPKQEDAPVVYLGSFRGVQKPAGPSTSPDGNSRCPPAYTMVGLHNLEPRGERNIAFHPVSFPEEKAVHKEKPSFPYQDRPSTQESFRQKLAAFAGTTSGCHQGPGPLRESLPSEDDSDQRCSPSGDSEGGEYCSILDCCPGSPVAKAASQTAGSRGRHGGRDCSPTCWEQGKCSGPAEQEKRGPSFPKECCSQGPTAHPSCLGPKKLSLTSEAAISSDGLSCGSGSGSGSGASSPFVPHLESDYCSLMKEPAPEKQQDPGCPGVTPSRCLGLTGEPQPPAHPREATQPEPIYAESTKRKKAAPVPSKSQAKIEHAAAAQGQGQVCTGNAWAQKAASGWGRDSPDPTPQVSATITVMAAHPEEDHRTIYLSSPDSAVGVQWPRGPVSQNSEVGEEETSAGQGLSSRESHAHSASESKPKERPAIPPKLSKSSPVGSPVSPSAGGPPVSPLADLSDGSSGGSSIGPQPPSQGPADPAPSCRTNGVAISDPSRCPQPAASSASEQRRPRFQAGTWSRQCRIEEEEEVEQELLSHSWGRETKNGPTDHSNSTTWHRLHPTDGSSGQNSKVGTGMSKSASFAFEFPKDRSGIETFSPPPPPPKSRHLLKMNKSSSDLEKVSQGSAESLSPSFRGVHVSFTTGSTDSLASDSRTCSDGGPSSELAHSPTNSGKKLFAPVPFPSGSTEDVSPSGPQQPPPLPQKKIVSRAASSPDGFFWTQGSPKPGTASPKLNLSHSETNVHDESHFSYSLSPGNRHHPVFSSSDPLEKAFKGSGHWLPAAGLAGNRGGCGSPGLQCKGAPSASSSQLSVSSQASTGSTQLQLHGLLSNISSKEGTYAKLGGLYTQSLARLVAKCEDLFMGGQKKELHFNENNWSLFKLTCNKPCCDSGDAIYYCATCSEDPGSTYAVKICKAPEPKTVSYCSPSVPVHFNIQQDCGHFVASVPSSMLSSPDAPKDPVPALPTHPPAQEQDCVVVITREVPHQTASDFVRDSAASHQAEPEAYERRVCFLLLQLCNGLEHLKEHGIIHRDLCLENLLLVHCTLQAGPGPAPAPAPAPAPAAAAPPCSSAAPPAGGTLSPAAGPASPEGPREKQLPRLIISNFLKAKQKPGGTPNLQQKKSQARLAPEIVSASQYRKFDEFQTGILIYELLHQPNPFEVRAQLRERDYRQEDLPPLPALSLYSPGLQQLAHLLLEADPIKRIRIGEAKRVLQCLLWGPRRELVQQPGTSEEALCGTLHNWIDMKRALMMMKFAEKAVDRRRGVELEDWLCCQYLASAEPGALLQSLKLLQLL

Compound: CC1Cc2ccccc2N1C(=O)C1CCCN(C1)C(=O)CCl (mixture of isomers) [TRIM25 ligand 11 (diastereomer mixture)]
Experiment: probe-labelled cysteine peptide fold change vs DMSO (competition) (log2 fold change); higher = less target engagement (more negative = stronger competition)
Conditions: THP-1, incubation time: 4 h
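Also: competitive chemoproteomic profiling in live THP-1 cells with an iodoacetamide desthiobiotin (IA-DTB) probe, comparing probe-labelled peptide intensities in compound-treated cells against DMSO-treated controls.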

Row | Target | probe-labelled cysteine peptide fold change (10 µM) | probe-labelled cysteine peptide fold change (50 µM)
1 | PREPL_Q4J6C6_184_TEDSEASTCVIIK (UniProt Q4J6C6) | 0.108 | -0.0386
2 | PPT1_P50897_152+160_CPGESSHICDFIR (UniProt P50897) | 0.0171 | -0.274
3 | PPP2R5C_Q13362_50_QCCVLFDFVSDPLSDLK (UniProt Q13362) | -0.104 | -0.04
4 | PPP1R7_Q15435_112_CIENLEELQSLR (UniProt Q15435) | 0.0828 | 0.0167
5 | PPP4C_P60510_266_CGNVAAILELDEHLQK (UniProt P60510) | 0.104 | 0.112
6 | PRDX2_P32119_70_LGCEVLGVSVDSQFTHLAWINTPR (UniProt P32119) | 0.077 | 0.00587
7 | PPME1_Q9Y570_312_GLSNLFLSCPIPK (UniProt Q9Y570) | 0.0354 | 0.0309
8 | PPP6R2_O75170_216_QSNASQTLCDIVR (UniProt O75170) | 0.0682 | 0.239
9 | PPIH_O43447_131_CDWLDGK (UniProt O43447) | -0.0259 | 0.162
10 | PPP6R2_O75170_366_LMAALLHTNTPSINQELCR (UniProt O75170) | 0.377 | 0.281
11 | PPP1R18_Q6NYC8_611_ALIVDESCRR (UniProt Q6NYC8) | -0.0805 | -0.177
12 | PPP2R1A_P30153_504+512_MTTLFCINVLSEVCGQDITTK (UniProt P30153) | 0.177 | 0.222
13 | PPIG_Q13427_549_ECDITK (UniProt Q13427) | 0.0567 | -0.0717
14 | PRAG1_Q86YV5_1087_DPVPALPTHPPAQEQDCVVVITR (UniProt Q86YV5) | 0.0381 | 0.174

Nos. 4 to 6 from above:
Row | Target | probe-labelled cysteine peptide fold change (10 µM) | probe-labelled cysteine peptide fold change (50 µM)
4 | PPP1R7_Q15435_112_CIENLEELQSLR (UniProt Q15435) | 0.0828 | 0.0167
5 | PPP4C_P60510_266_CGNVAAILELDEHLQK (UniProt P60510) | 0.104 | 0.112
6 | PRDX2_P32119_70_LGCEVLGVSVDSQFTHLAWINTPR (UniProt P32119) | 0.077 | 0.00587
